Results taken from PubChem BioAssay AID1347076 (National Center for Advancing Translational Sciences (NCATS), 2019).
In all, about 400,000 compounds went through this assay and about 13,000 (3.2%) were called active. The shares of active, inactive and inconclusive entries below differ from those in the screen. Calls follow the shape of the dose curve; as a rule, active = well fitted cell-killing curve with a large enough effect; inconclusive = small, poorly fitted or top-dose-only effect, or effect the other way; inactive = flat fitted curve, though single readings scatter. Where the call is inconclusive, the potency comes from a doubtful curve fit.

Assay: qHTS assay for MDR1-selective chemotherapeutics: Primary screen using the drug-selected MDR subline cells KB-V1; also: nearly all actives have a fitted effect of over 60% in size
Conditions: KB-V1 MDR cells viability, CellTiter-Glo, 72 h; activity change, negative = cytotoxicity: at 46.1 µM (top of the series)
In short: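 Readout: CellTiter-Glo luminescence, 10 min after addition. Cells: KB-V1 MDR subline, 72 h at 37 degrees C with compound. Analysis: corrected, normalized data fitted to concentration-effect curves.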
% is scaled to controls: 0 for no effect and ±100 for the full control effect; potency is read from the fitted curve at half-maximal effect.

SMILES	Potency	activity change, negative = cytotoxicity
Nc1nc(CSC(=S)N2CCCCC2)nc(Nc2ccccc2)n1	inconclusive: 13 µM [cytotoxic, partial curve]	–
CSc1ncnc2c1ncn2CCCNc1ccc(C)c(C)c1	inactive	–
CC(=O)C(Cc1ccccc1)NC(=O)CCl (centres undefined)	inactive	–
CCOc1ccc(C(C)=O)cc1CSC(=N)N	inactive	–
Cc1ccc(NC(=O)Cn2cc(C(F)(F)F)cc(Cl)c2=O)cc1Cl	inconclusive: 29.1 µM [rising, single point]	–
O=C(CNC(=O)c1ccc2ccccc2c1)OCC(=O)N1CCN(S(=O)(=O)c2ccc3ccccc3c2)CC1	inconclusive: 32.6 µM [cytotoxic, single point]	–
Cc1ccc(CCNS(=O)(=O)c2ccc(C)cc2)cc1	inactive	–
Cc1cccc(-n2cnc3cc(C(=O)N4CCCCC4)ccc32)c1	inconclusive: 16.4 µM [cytotoxic, single point]	–
OCC[C@@H]1C[C@H](O)[C@@H](O)[C@]2(CCCc3ccccc3O2)O1	inactive	–
Cc1onc(-c2c(F)cccc2Cl)c1C(=O)OCC(=O)N(C)c1ccccc1	inactive	–
O=C(CCCCCn1c(=S)[nH]c2cc3c(cc2c1=O)OCO3)N1CCN(C2CCCCC2)CC1	active: 20.6 µM	–
COc1cc(OC)cc(-c2nnc(SCC(=O)N(C(C)C)C(C)C)o2)c1	inactive	–
Cc1ccc(SC[C@H](c2ccccc2)N2CCN(CC(C)C)CCC2=O)cc1	inactive	–
CN(Cc1ccccc1)c1nc2c(c(=O)[nH]c(=O)n2C)n1CCOc1ccccc1	inconclusive: 18.4 µM [cytotoxic, single point]	–
O=C(/C=C/c1c(F)cccc1Cl)c1ccc(F)cc1	inactive	–
COc1ccc(-c2cc3ccccc3n2CC(O)Cn2nc(C)cc2C)cc1 (centres undefined)	inactive	–
O=C(CN1C(=O)COc2ccccc21)N(Cc1ccc2c(c1)OCO2)CC1CCCO1 (centres undefined)	active: 4.11 µM	–
Cc1ccc(NC(=O)CC2Oc3ccc(C)cc3NC2=O)c(C)c1 (centres undefined)	inconclusive: 29.1 µM [cytotoxic, single point]	–
O=C(NC1CC1)c1ccc2c(c1)N(Cc1ccccc1)CCS2	inactive	–
O=C(NCC(=O)N(Cc1ccccc1)C(C(=O)NC1CCCC1)c1ccco1)c1ccco1 (centres undefined)	inconclusive: 29.1 µM [cytotoxic, single point]	–
CNc1nc2ccccc2n(C)c1=O	inconclusive: 23.1 µM [rising, single point]	–
CCOc1ccc(-n2ccnc2SCC(=O)N2CCCc3ccccc32)cc1	active: 11.6 µM	–
CCCCSc1nc2c([nH]1)c(=S)n(C)c(=O)n2C	active: 1.46 µM	–
CS(=O)(=O)c1nsc2nc(=O)c(/C=C3\C=Nc4ccccc43)c(N)n12	inactive	–
O=C(/C=C\c1cn(-c2ccccc2)nc1-c1cccs1)N1CCOCC1	inconclusive: 14.6 µM [cytotoxic, partial curve]	–

SMILES	Potency	activity change, negative = cytotoxicity
Clc1cnc(N/N=C/c2cccs2)c(Cl)c1	inconclusive: 32.6 µM [cytotoxic, single point]	–
CCOc1ccc(NS(=O)(=O)c2ccc(NS(C)(=O)=O)cc2)cc1	inconclusive: 0.0073 µM [rising, full curve]	–
CC(NS(=O)(=O)c1ccc(Cl)cc1)C(c1cccs1)N1CCN(C)CC1 (centres undefined)	inconclusive: 10.3 µM [cytotoxic, partial curve, poor fit]	–
Cc1cc(CN(C)C(=O)c2cc(COc3ccc(C)c(C)c3)on2)on1	inconclusive: 14.6 µM [cytotoxic, partial curve]	–
COCc1c(C(=O)N/N=C/c2cccc3ccccc23)nnn1-c1nonc1N	inconclusive: 16.4 µM [rising, single point]	–
COC(=O)c1ccc2nc(-c3cccc(N)c3)cn2c1	inactive	–
CC(C)(O)C#Cc1ccc(CNC[C@H]2O[C@@H](n3cnc4c(=O)[nH]c(N)nc43)[C@H](O)[C@@H]2O)s1	inactive	–
Cn1c(SCC(=O)N2CCCC2)nnc1-c1ccc2c(c1)OCO2	inconclusive: 29.1 µM [rising, single point]	–
CCOC(=O)c1c(-c2ccccc2)oc2ccc(O)c(CN3CCN(C)CC3)c12	active: 20.6 µM	–
CCSc1nnc(CCNC(=O)OC(C)(C)C)o1	inconclusive: 20.6 µM [cytotoxic, single point]	–
CC(NC(=O)COc1ccc(Br)cc1)C1CCCO1 (centres undefined)	inactive	–
CN1CCN(c2ccc(CNC(=O)C3Cc4c(-c5ccc(Cl)cc5)ccnc4O3)cc2)CC1 (centres undefined)	inconclusive: 8.2 µM [cytotoxic, partial curve, poor fit]	–
CC(=O)Nc1c(Cl)c(Cl)c2c(c1Cl)C(=O)c1cc(Cl)ccc1-2	active: 14.6 µM	–
COc1ccc(NC2=CC(c3ccc(F)cc3)N(c3ccc(OC)cc3)C2=O)cc1 (centres undefined)	inconclusive: 6.51 µM [cytotoxic, partial curve]	–
CCN(C(=O)COC(=O)/C(C#N)=C/c1ccc(N(C)C)cc1)C1CCS(=O)(=O)C1 (centres undefined)	inconclusive: 18.4 µM [rising, single point]	–
O=C(NNC(=O)c1c(O)c2ccccc2[nH]c1=O)c1ccccc1Br	inconclusive: 20.6 µM [cytotoxic, partial curve]	–
COc1cc(C(=O)Nc2cccc(-c3nnc(-c4ccco4)o3)c2)ccc1OC(C)=O	active: 20.6 µM	–
COc1ccc(-n2nc([N+](=O)[O-])c(=NCc3ccco3)n2O)cc1	inactive	–
O=C(NCc1cccnc1)c1cccnc1Sc1ccc(Cl)cc1	active: 18.4 µM	–
Cc1nc(=S)n(-c2ccccc2)[nH]1	inactive	–
COc1ccc2c(Cn3cnc4cc([N+](=O)[O-])ccc4c3=O)cc(=O)oc2c1	active: 4.61 µM	–
CCn1cc(C(=O)N[C@@H](C)C(=O)NCCCn2ccnc2)c(=O)c2cc3c(cc21)OCO3	inconclusive: 20.6 µM [rising, partial curve, poor fit]	–
COc1cc(/C=N/NC(=O)c2ccc(COc3cc(C)ccc3C(C)C)cc2)cc(OC)c1O	inconclusive: 14.6 µM [cytotoxic, partial curve]	–
CCN(c1ccccc1)S(=O)(=O)c1ccc(OC)c(NC(=O)Cc2ccc(OC)c(OC)c2)c1	inactive	–
O=C(OCN1C(=O)C(=O)c2ccccc21)c1ccc(Cl)cc1	inactive	–

Part of the list above, reformatted.
CNc1nc2ccccc2n(C)c1=O
  Potency: inconclusive: 23.1 µM [rising, single point]
CCOc1ccc(-n2ccnc2SCC(=O)N2CCCc3ccccc32)cc1
  Potency: active: 11.6 µM

Following part

SMILES	Potency	activity change, negative = cytotoxicity
Cc1cc(=O)n2c3ccccc3n(CC(O)CN3CCN(Cc4ccccc4)CC3)c2c1C#N (centres undefined)	inactive	–
Cc1cc(/C=C2\SC(=S)N(Cc3ccco3)C2=O)c(C)n1-c1cccnc1	inconclusive: 7.31 µM [cytotoxic, partial curve]	–
O=C(COc1ccccc1Br)N1CCN(C(=O)c2ccco2)CC1	inconclusive: 32.6 µM [cytotoxic, single point]	–
Cc1ccc(S(=O)(=O)N2CCCCC2)c(C)c1NS(C)(=O)=O	inactive	–
CSc1ccc(-c2nc(CSCC(=O)NC3CC3)c(C)o2)cc1	inactive	–
O=C1CSC(c2cccc(F)c2)N1c1ccccc1 (centres undefined)	inactive	–
O=c1c2ccccc2nc(-c2ccc(Cl)cc2Cl)n1CCCn1ccnc1	inconclusive: 7.31 µM [cytotoxic, partial curve]	–
COc1ccc([C@H]2CC(=O)C=C(c3cc(Br)ccc3OC)C2)cc1	inconclusive: 23.1 µM [cytotoxic, single point]	–
Cn1ncc(SCc2ccccc2)c(Cl)c1=O	inconclusive: 11.6 µM [cytotoxic, partial curve]	–
CC[C@]12c3[nH]c4cc(-c5ccco5)ccc4c3CCN1C(=O)[C@@H](CC(=O)NC/C=C(\C)CCC=C(C)C)C[C@@H]2C(=O)N1CCN(C(=O)c2ccco2)CC1	inconclusive: 29.1 µM [cytotoxic, single point]	–
CN(C)/C=C(\C(=O)c1ccc(Cl)cc1)c1nnnn1-c1ccc(Cl)cc1	inconclusive: 18.4 µM [cytotoxic, partial curve]	–
COc1ccccc1NC(=O)CC(C)n1nc(C)cc1C (centres undefined)	inactive	–
Cc1noc(C)c1S(=O)(=O)N(C)C[C@H]1Oc2ccc(NC(=O)C3CCCCC3)cc2C(=O)N([C@H](C)CO)C[C@@H]1C	–	inconclusive: 14.2%
O=C(c1cnc(Cl)c(Cl)c1)N1CCC(Cc2ccccc2)CC1	inconclusive: 25.9 µM [cytotoxic, single point]	–
Cc1nc(SCC(=O)N(C)Cc2ccco2)c2c(C)c(C)sc2n1	inconclusive: 29.1 µM [cytotoxic, single point]	–
O=C(CCn1c(=O)oc2ccccc21)Nc1cccc(Cl)c1	inconclusive: 2.91 µM [rising, full curve]	–
O=C(NCc1nc2ccccc2[nH]1)C1=C[C@@H](c2ccc(Br)cc2)C[C@@H](OCc2ccc(CO)cc2)O1	inactive	–
CCNCC(=O)N1c2ccccc2CCc2ccc(NC(=O)OCC)cc21	inactive	–
CCOC(=O)c1ccc(NC(=O)CSc2nc3c(c(=O)[nH]2)CN(Cc2ccccc2)CC3)cc1	inconclusive: 29.1 µM [rising, single point]	–
Cc1[nH][nH]c(=O)c1C=NCc1cccs1	inconclusive: 0.231 µM [rising, full curve, poor fit]	–
O=C(/C=C/c1cccnc1)Nc1cccc([S+](=O)([O-])Nc2ccccc2F)c1	inactive	–
CN(CC(=O)Nc1ccc(C#N)cc1)Cc1ccc(Cl)cc1	inconclusive: 20.6 µM [cytotoxic, partial curve]	–
Cc1ccc(N(CC(=O)N2CCN(c3ccc(F)cc3)CC2)S(=O)(=O)c2c(C)noc2C)cc1	inactive	–
CCc1cc(=O)oc2c(C)c(OCC(=O)N3CCC(C(=O)O)CC3)ccc12	inconclusive: 29.1 µM [cytotoxic, single point]	–

Retrieved by compound from above (two):
SMILES	Potency	activity change, negative = cytotoxicity
COc1ccccc1NC(=O)CC(C)n1nc(C)cc1C (centres undefined)	inactive	–
O=C1CSC(c2cccc(F)c2)N1c1ccccc1 (centres undefined)	inactive	–
